# Reference: PubChem BioAssay AID504834 (National Center for Advancing Translational Sciences (NCATS), 2011)
# Hit rate of the full screen: of about 320,000 compounds, about 22,000 (6.9%) were called active. Inconclusive means that the source gave no clear call. Such entries were picked first, then a sample of the others. Calls follow the shape of the dose curve; as a rule, active = well fitted inhibition curve with a large enough effect; inconclusive = small, poorly fitted or top-dose-only effect, or another doubt; inactive = no such curve, though single readings can be large or run the other way. Where the call is inconclusive, the potency comes from a doubtful curve fit.
# Assay: Primary qHTS for delayed death inhibitors of the malarial parasite plastid, 96 hour incubation
# Conditions: P. falciparum luciferase reporter growth; series mostly up to 28.7 µM
# In short: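 Parasite growth measured via integrated firefly luciferase reporter in P. falciparum. Infected erythrocytes at 2% hematocrit, 0.05% parasitemia final were treated 96 hours at 37 C under 5% CO2, and luminescence was read.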
# Potency is read from the fitted curve at half-maximal effect.
row,Structure (SMILES),Potency
1,Cc1cc(C)c(S(=O)(=O)N2CCCC2CNC(=O)c2ccc3c(c2)OCO3)c(C)c1 (stereo not given),active: 11.7 µM
2,COC(=O)C(CCSC)NC(=O)Cn1ncc2c(=O)oc3ccccc3c21 (stereo not given),active: 11.7 µM
3,CC1(C)CC(=O)C(C(O)c2cccc([N+](=O)[O-])c2)C(C)(C)N1 (stereo not given),"inconclusive: 18.5 µM [inhibitor, single point]"
4,O=C(N[C@H]1CP(=O)(Oc2ccccc2)O[C@H](COCc2ccccc2)[C@H]1O)C(Cl)(Cl)Cl (stereo not given in full),active: 11.7 µM
5,CC(Oc1ccc(Cl)cc1)C(=O)NCCN1C(=O)S/C(=C\c2cccnc2)C1=O (stereo not given),inactive
6,COc1ccc(S(=O)(=O)N(C)C)cc1NC(=O)COC(=O)c1nn(C)c(=O)c2ccccc12,inactive
7,CC1=NNC(=O)C1Cc1ccccc1C (stereo not given),inactive
8,Cc1cc(OC(C)C(=O)NCc2ccccn2)c2c(C)c(C)c(=O)oc2c1 (stereo not given),"inconclusive: 10.4 µM [inhibitor, single point]"
9,CCc1cc(C=NC2CCCCC2)c(O)s1,"inconclusive: 1.31 µM [inhibitor, full curve, poor fit]"
10,CSc1nnc(NC(=O)c2cccc(S(=O)(=O)N3CCOCC3)c2)s1,"inconclusive: 14.7 µM [inhibitor, partial curve, poor fit]"
11,Cc1noc(NS(=O)(=O)c2ccc(N/C=C\C(=O)c3cccc4ccccc34)cc2)c1C,"inconclusive: 16.5 µM [inhibitor, partial curve, poor fit]"
12,COc1cc(NC(=S)NC(=O)c2ccccc2F)ccc1NC(=O)c1cccs1,inactive
13,Cc1ccc(C)c(S(=O)(=O)N2CCCCC2CCNC(=O)C(=O)NCCc2ccco2)c1 (stereo not given),"inconclusive: 13.1 µM [inhibitor, single point]"
14,Cc1c(Cl)cccc1NC(=O)Nc1cc(C(C)(C)C)on1,"inconclusive: 11.7 µM [inhibitor, single point]"
15,Cc1cc(C(=O)Cn2cncn2)c(C)n1CCc1ccc(F)cc1,"inconclusive: 18.5 µM [inhibitor, single point]"
16,CCCCCCN=CC1=C(O)C(C(=O)OC)C(C)(C)CC1=O (stereo not given),"inconclusive: 14.7 µM [inhibitor, partial curve, poor fit]"
17,CCOC(=O)C1(Cc2ccc(Cl)cc2)CCN(C(=O)C2CCCO2)CC1 (stereo not given),"inconclusive: 18.5 µM [inhibitor, single point]"
18,CC(C)(C)OC(=O)N[C@H](C(=O)OC(C)(C)C)c1ccc2ccccc2c1,"inconclusive: 16.5 µM [inhibitor, single point]"
19,COc1ccc(CNn2c(-c3ccccc3F)nc3ccccc3c2=O)cc1OC,"inconclusive: 10.4 µM [inhibitor, partial curve, poor fit]"
20,Cn1c(=O)[nH]c(=O)c2c1nc(NCCCn1ccnc1)n2Cc1cccc(Br)c1,"inconclusive: 11.7 µM [inhibitor, single point]"
21,COc1ccc(C(CNC(=O)c2ccc(-c3cccc(C(F)(F)F)c3)o2)N2CCOCC2)cc1 (stereo not given),active: 1.47 µM
22,COc1cc(OC)cc(-c2nc(SCC(=O)Nc3ccccc3F)n[nH]2)c1,"inconclusive: 18.5 µM [inhibitor, single point]"

# Sorted by molar mass (high to low): part of the list above
row,Structure (SMILES),Potency
17,CCOC(=O)C1(Cc2ccc(Cl)cc2)CCN(C(=O)C2CCCO2)CC1 (stereo not given),"inconclusive: 18.5 µM [inhibitor, single point]"
14,Cc1c(Cl)cccc1NC(=O)Nc1cc(C(C)(C)C)on1,"inconclusive: 11.7 µM [inhibitor, single point]"
3,CC1(C)CC(=O)C(C(O)c2cccc([N+](=O)[O-])c2)C(C)(C)N1 (stereo not given),"inconclusive: 18.5 µM [inhibitor, single point]"

# (cont.)

row,Structure (SMILES),Potency
1,Clc1ccc(-c2cn(-c3ccc(Cl)cc3)c3[n+]2CCCCC3)cc1,"inconclusive: 0.37 µM [inhibitor, full curve, poor fit]"
2,O=S(=O)(c1ccc(NC(=S)NCc2ccco2)cc1)N1CCCCC1,"inconclusive: 16.5 µM [inhibitor, single point]"
3,Cc1cc(SCC(=O)N(C)c2c(N)n(Cc3ccccc3)c(=O)[nH]c2=O)nc2ccccc12,"inconclusive: 18.5 µM [inhibitor, single point]"
4,Cc1cccc(NC(=O)c2sc3nc(N4CCOCC4)c4c(c3c2N)CCCC4)c1,"inconclusive: 11.7 µM [inhibitor, single point]"
5,Cc1ccc(NC(=O)Cn2cc([N+](=O)[O-])nc2C)cc1C,inactive
6,CCc1cccc(NC(=O)C2CCCN2S(=O)(=O)c2ccccc2C(F)(F)F)c1 (stereo not given),"inconclusive: 11.7 µM [inhibitor, single point]"
7,O=C(O)CCn1cc(C=C2C(=O)NC(=S)NC2=O)c(-c2ccccc2)n1,inactive
8,COc1ccccc1NC(=S)NC(=O)C(C)(C)C,"inconclusive: 16.5 µM [inhibitor, partial curve, poor fit]"
9,CC(C)=CCN1CCNC(=O)C1CC(=O)NCc1nc(C)c(C)s1 (stereo not given),active: 2.33 µM
10,CC1(C)OC(=O)C(=Cc2ccc[nH]2)C(=O)O1,"inconclusive: 20.8 µM [inhibitor, partial curve, poor fit]"
11,Cc1cc2oc(C(=O)NCc3ccncc3)c(C)c2cc1C,"inconclusive: 18.5 µM [inhibitor, single point]"
12,CCn1c(O)c(N=NC(=O)Cc2csc(N3CCOCC3)n2)c2ccccc21,"inconclusive: 18.5 µM [inhibitor, partial curve, poor fit]"
13,CC(C)N(CCNC(=O)c1ccc(CS(=O)(=O)c2c(Cl)cccc2Cl)o1)Cc1ccccc1,"inconclusive: 5.22 µM [inhibitor, partial curve, poor fit]"
14,O=C(Nc1cc(=O)[nH]c2nc(-c3ccccc3)nn12)c1ccccc1Cl,"inconclusive: 1.04 µM [inhibitor, full curve]"
15,COc1ccccc1C(=O)Nc1ccc(-c2nnc(SCC(=O)O)n2C)cc1,"inconclusive: 11.7 µM [inhibitor, single point]"
16,O=C(NCc1csc(-c2cccs2)n1)Nc1cccc(Cl)c1,"inconclusive: 0.0026 µM [inhibitor, full curve, poor fit]"
17,O=C(CSc1nc(-c2ccccc2)c(-c2ccccc2)[nH]1)NCc1ccco1,"inconclusive: 0.0074 µM [inhibitor, full curve, poor fit]"
18,COc1ccc(OCC(=O)OCC(=O)NC2CCCCC2C)cc1 (stereo not given),"inconclusive: 1.04 µM [inhibitor, partial curve, poor fit]"
19,Cc1ccc(NC(=O)CN(C)C(=O)CSc2nc3ccccc3o2)cc1,inactive
20,COc1ccccc1-c1cn[nH]c1-c1ccc(OCC(=O)NN)cc1O,"inconclusive: 14.7 µM [inhibitor, single point]"
21,O=C(COc1ccc(Cl)cc1Br)Nc1ccccc1N1CCCC1,"inconclusive: 18.5 µM [inhibitor, single point]"
22,Cc1ccc(-c2noc(C3CCCN(S(=O)(=O)c4ccc5ccccc5c4)C3)n2)o1 (stereo not given),"inconclusive: 9.28 µM [inhibitor, partial curve, poor fit]"

row,Structure (SMILES),Potency
1,Cc1ccc(C)c(NC(=S)N2CCC(NC(=O)C3CCCCC3)CC2)c1,"inconclusive: 6.57 µM [inhibitor, partial curve, poor fit]"
2,CC(NC(=O)/C=C/c1ccccc1[N+](=O)[O-])C1CC2CCC1C2 (stereo not given),"inconclusive: 10.4 µM [inhibitor, single point]"
3,CC1CN=C2C(C(=O)Nc3ccccc3)=C(O)CC(c3ccccc3)N21 (stereo not given),"inconclusive: 5.22 µM [inhibitor, partial curve, poor fit]"
4,CCOc1ccc(Br)cc1C1=NN(C(C)=O)C(c2ccc([N+](=O)[O-])s2)O1 (stereo not given),"inconclusive: 18.5 µM [inhibitor, single point]"
5,c1ccc2c3c([nH]c2c1)-c1[nH]ncc1CC3,"inconclusive: 18.5 µM [inhibitor, single point]"
6,CCn1c2ccccc2c2cc(NC(=O)c3ccc(C)c([N+](=O)[O-])c3)ccc21,inactive
7,COc1ccccc1N(CCN1C(=O)c2cccc3cccc(c23)C1=O)C(=O)c1ccncc1,inactive
8,Cc1csc(NC(=O)CSc2ccc(-c3ccccn3)nn2)n1,"inconclusive: 9.28 µM [inhibitor, single point]"
9,COc1cc2c(cc1OC)CN(CC(=O)Nc1ccc(F)cc1)CC2,"inconclusive: 3.29 µM [inhibitor, single point]"
10,Cc1cc2c(cc1S(=O)(=O)Nc1ccc(F)cc1)n(C)c(=O)c(=O)n2C,"inconclusive: 18.5 µM [inhibitor, single point]"
11,CC1(C)SC(=S)N(NC(=O)Nc2cccc3ccccc23)C1N(O)C(=O)Nc1ccccc1 (stereo not given),"inconclusive: 13.1 µM [inhibitor, single point]"
12,Cc1nc2ccc(N=NC3=C(O)CCCC3=O)cc2s1,inactive
13,C/C(=N\NC(=O)c1cccc(S(=O)(=O)Nc2cccc(Cl)c2)c1)c1cccs1,"inconclusive: 18.5 µM [inhibitor, single point]"
14,COc1ccc2[nH]c(C(=O)N/N=C/c3ccc(O)cc3O)cc2c1,"inconclusive: 2.94 µM [inhibitor, full curve]"
15,O=C(COC(=O)CCC(=O)c1ccc(F)cc1)Nc1ccccc1,inactive
16,CS(=O)(=O)c1ccc(Oc2ccc(-c3nnco3)cc2)c([N+](=O)[O-])c1,inactive
17,COc1ccccc1CN1CCNC(=O)C1CC(=O)N(C)CC1CCOCC1 (stereo not given),"inconclusive: 13.1 µM [inhibitor, single point]"
18,CC(NC(=O)CCSCc1ccccc1F)c1ccccc1 (stereo not given),"inconclusive: 11.7 µM [inhibitor, single point]"
19,COc1cc2ncnc(NCc3ccc4c(c3)OCO4)c2cc1OC,"inconclusive: 11.7 µM [inhibitor, single point]"
20,CCOC(=O)CC1Sc2ccccc2NC1=S (stereo not given),inactive
21,O=C(CCNC(=O)C1CCN(S(=O)(=O)c2ccccc2)CC1)NCc1ccccc1Cl,"inconclusive: 18.5 µM [inhibitor, partial curve, poor fit]"

# By substructure: the entries above with a COOH group (2)
row,Structure (SMILES),Potency
7,O=C(O)CCn1cc(C=C2C(=O)NC(=S)NC2=O)c(-c2ccccc2)n1,inactive
15,COc1ccccc1C(=O)Nc1ccc(-c2nnc(SCC(=O)O)n2C)cc1,"inconclusive: 11.7 µM [inhibitor, single point]"
